Experimental data taken from patent publication US20250387363A1, “LIQUID EPINEPHRINE PRODRUG FORMULATIONS AND LIQUID EPINEPHRINE FORMULATIONS” (Insignis Therapeutics, Inc., priority 2024, published 2025).
The name of at least one read-out is uncertain.

Experiment: Cross study epinephrine PK comparison, L-dipivefrin HCl formulations vs EpiPen 0.3 mg
Assay type: in vivo, human
Details: sublingual liquid dosage forms containing 5 or 10 mg dipivefrin HCl; FIG. 5
Description: FIG. 5. […] Study period I and study period II refer to the two test periods described in example 7 which are separated by a 1 week washout period.

## CNC[C@H](O)c1ccc(OC(=O)C(C)(C)C)c(OC(=O)C(C)(C)C)c1.Cl [L-dipivefrin HCl, L-dipivefrin hydrochloride]
  Plasma epinephrine Cmax and Tmax relative to a 0.3 mg IM injection: comparable
